Measured values reported in article PMC7419506, “KN3014, a piperidine-containing small compound, inhibits auto-secretion of IL-1β from PBMCs in a patient with Muckle–Wells syndrome” (Scientific Reports, 2020).

The chains behind the UniProt entries cited, without tags or fusion partners. Where a name states a change or a piece, a line headed by the entry shows the natural chain unless it says otherwise.
UniProt Q9ULZ3: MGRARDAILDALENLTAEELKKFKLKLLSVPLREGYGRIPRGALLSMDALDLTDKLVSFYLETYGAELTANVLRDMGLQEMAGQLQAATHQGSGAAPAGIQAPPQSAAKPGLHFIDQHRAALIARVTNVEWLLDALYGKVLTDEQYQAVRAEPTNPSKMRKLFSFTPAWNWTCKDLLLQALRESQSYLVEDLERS

Target: T1, full-length AIM2-Btn (UniProt O14862)
T1 sequence (chain, biotin): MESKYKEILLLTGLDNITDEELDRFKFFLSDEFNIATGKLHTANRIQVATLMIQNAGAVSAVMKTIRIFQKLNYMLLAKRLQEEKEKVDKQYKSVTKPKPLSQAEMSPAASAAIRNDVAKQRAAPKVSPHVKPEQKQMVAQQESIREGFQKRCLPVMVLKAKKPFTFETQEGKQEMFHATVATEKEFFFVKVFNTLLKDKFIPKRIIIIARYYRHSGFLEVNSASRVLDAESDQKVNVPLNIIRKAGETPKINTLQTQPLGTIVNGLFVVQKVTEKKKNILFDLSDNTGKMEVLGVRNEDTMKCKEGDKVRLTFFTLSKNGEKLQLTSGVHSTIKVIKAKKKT
Assay: AlphaScreen or HTRF; 100 ng of each synthesized protein in ALPHA buffer (100 mM Tris-HCl pH 8.0, 0.01% Tween 20, 1 mg/mL BSA); streptavidin donor beads, protein-A acceptor beads and 5 µg/mL anti-FLAG mAb M2; 25 °C, 24 h; with or without small compounds (KN3014, KN8311, KN1960, KN5330, KN7644, MCC950); no purification told

binding: binds
Substance: N-terminal FLAG-tagged PYD of ASC (from UniProt Q9ULZ3) (domain or fragment)

These are yes or no findings as the source states them, for the method shown. Binding can be weak; no strength is given.
